Test results taken from US5710018A, “Mammalian influx peptide transporter” (Eli Lilly and Company, priority 1995, dated 1998).

Molecular target: T1, influx peptide transporter (Homo sapiens, UniProt Q12864)
T1 sequence (Q12864 23-832 K115E/E734D/E739A): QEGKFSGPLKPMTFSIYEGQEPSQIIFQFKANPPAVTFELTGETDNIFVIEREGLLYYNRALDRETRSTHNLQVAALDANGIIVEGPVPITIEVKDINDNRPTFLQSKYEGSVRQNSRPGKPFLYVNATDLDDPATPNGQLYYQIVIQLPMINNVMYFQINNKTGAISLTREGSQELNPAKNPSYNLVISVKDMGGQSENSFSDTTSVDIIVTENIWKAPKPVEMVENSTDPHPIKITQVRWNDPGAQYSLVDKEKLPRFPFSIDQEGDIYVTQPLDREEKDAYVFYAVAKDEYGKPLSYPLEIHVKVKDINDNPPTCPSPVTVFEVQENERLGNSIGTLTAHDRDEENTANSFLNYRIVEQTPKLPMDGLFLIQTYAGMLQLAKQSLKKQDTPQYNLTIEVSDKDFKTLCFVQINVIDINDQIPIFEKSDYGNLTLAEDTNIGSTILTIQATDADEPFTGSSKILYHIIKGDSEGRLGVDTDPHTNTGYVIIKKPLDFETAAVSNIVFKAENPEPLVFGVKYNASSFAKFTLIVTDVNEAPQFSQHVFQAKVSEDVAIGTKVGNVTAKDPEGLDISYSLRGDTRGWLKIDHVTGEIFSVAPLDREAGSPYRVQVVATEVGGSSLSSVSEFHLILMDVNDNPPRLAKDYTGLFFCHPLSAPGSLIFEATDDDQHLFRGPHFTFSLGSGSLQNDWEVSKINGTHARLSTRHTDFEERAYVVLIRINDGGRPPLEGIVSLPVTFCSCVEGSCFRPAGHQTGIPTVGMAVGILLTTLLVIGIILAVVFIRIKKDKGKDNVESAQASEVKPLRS
Conditions: Clone 9 versus control cells

SMILES: CC1=C(C(=O)O)N2C(=O)[C@@H](NC(=O)[C@H](N)c3ccccc3)[C@H]2SC1 [Cephalexin, cephalexin]
- uptake of [14C]cephalexin by transfectant compared with the control: significantly higher
